Test results published in the supplement of paper PMC10849652.
Some of the results follow.

The chains behind the UniProt entries cited, without tags or fusion partners. Where a name states a change or a piece, a line headed by the entry shows the natural chain unless it says otherwise.
UniProt P48739: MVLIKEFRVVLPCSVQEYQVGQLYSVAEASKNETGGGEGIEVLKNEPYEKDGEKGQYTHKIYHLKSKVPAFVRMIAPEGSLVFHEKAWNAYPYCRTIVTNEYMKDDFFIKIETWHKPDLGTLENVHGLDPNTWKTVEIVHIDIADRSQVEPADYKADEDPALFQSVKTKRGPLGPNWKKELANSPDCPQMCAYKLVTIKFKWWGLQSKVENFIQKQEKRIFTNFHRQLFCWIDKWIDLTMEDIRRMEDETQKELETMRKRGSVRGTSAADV
UniProt Q9UBF8: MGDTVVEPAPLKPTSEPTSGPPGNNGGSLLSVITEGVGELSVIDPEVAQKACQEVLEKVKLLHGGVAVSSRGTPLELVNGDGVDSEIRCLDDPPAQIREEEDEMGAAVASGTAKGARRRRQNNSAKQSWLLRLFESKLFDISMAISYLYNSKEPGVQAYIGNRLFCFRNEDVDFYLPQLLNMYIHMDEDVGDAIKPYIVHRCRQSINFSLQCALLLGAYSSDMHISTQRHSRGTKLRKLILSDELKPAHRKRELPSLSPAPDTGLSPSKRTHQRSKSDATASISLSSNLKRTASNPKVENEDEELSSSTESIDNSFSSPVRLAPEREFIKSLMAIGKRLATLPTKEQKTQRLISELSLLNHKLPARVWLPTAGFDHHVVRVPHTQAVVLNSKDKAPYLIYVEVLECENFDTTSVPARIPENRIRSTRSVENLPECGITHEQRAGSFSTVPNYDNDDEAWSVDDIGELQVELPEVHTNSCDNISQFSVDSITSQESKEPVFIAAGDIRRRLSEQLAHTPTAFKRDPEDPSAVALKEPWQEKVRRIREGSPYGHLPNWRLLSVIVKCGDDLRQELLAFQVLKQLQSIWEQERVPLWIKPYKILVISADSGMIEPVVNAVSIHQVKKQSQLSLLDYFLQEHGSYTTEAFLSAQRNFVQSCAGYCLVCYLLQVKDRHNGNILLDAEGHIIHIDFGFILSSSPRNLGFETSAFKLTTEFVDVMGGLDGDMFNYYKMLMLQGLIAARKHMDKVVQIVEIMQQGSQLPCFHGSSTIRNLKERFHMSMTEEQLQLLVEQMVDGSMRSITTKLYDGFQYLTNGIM
UniProt Q9UG56: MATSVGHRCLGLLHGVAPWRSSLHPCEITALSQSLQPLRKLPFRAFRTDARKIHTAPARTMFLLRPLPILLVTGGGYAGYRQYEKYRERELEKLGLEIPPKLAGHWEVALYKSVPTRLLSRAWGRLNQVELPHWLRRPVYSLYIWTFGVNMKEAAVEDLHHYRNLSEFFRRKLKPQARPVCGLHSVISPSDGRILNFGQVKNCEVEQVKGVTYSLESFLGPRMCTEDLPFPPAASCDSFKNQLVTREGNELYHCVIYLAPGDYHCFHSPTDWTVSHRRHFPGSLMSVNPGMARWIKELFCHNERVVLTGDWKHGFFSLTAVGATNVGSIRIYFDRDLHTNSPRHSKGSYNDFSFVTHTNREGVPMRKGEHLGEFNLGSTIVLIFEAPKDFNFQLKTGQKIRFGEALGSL
UniProt Q93100: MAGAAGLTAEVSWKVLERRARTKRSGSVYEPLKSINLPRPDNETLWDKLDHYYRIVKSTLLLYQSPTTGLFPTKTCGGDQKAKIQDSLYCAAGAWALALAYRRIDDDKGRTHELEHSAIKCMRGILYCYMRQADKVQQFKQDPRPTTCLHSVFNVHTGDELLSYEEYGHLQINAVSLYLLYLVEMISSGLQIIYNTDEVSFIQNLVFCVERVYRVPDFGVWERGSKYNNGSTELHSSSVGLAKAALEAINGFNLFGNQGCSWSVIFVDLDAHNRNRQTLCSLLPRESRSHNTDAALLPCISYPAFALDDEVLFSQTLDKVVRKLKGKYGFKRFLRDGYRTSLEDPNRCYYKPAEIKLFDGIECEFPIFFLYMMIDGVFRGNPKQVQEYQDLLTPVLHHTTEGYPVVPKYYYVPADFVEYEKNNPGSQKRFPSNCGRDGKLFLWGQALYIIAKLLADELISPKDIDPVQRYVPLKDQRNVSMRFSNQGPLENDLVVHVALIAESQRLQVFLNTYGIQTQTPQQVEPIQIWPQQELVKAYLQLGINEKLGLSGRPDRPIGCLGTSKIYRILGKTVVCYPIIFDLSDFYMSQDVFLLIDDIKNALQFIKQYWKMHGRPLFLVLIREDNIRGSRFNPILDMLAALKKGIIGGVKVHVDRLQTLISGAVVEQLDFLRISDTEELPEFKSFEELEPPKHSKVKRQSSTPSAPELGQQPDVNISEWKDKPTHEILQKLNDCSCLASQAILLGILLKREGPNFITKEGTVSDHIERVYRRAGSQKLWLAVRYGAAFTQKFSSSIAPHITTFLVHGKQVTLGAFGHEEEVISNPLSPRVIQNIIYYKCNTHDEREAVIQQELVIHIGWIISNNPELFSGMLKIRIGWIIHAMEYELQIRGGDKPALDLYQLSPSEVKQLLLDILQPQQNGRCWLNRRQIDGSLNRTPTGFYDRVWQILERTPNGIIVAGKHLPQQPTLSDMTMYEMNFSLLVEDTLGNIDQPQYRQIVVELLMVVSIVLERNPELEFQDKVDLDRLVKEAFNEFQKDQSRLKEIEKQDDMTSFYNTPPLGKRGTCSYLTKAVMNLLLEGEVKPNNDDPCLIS
UniProt P37287: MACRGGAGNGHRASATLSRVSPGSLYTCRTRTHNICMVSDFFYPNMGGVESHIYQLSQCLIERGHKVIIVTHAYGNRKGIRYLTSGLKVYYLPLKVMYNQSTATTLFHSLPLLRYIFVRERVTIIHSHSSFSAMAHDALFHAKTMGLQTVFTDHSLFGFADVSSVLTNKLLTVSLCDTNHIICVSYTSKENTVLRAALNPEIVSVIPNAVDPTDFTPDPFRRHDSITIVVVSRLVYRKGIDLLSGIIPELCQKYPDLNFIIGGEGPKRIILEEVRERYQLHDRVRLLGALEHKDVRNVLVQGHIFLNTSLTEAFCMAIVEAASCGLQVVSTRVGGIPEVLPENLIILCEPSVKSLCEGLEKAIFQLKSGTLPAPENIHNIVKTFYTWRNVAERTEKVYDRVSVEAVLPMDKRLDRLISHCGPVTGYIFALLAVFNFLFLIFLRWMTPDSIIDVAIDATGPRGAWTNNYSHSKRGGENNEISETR
UniProt Q01970, whole entry, looked up: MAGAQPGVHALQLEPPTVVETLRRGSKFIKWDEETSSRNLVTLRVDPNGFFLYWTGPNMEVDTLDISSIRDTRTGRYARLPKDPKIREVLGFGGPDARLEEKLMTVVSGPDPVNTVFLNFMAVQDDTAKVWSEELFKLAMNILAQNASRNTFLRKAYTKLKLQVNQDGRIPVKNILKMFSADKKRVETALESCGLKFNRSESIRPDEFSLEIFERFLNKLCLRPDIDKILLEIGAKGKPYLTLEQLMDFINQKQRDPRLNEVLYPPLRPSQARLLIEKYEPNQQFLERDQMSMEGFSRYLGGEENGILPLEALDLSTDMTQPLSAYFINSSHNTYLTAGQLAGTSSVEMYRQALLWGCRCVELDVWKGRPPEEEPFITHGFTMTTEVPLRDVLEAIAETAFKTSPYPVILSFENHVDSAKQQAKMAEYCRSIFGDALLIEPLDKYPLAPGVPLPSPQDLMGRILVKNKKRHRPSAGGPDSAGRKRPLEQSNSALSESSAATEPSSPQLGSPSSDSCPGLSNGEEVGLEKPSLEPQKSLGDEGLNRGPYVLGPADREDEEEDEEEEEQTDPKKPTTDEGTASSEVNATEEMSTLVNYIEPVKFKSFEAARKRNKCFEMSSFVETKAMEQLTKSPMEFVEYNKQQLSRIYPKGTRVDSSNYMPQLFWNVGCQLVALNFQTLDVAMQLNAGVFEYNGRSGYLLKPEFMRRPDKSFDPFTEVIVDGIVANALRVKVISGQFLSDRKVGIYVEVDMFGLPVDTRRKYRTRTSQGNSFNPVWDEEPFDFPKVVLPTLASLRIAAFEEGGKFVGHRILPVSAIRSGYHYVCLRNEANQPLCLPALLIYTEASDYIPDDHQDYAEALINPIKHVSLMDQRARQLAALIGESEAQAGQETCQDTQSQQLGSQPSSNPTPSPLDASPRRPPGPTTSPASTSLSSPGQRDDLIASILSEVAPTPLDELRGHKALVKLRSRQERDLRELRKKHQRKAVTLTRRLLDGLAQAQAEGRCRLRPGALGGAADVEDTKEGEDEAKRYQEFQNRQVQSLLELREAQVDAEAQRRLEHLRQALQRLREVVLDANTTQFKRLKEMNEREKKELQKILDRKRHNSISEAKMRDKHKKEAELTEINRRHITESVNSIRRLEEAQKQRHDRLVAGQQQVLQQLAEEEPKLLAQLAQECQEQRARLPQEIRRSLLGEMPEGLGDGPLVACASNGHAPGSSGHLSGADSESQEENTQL
UniProt Q5H8A4: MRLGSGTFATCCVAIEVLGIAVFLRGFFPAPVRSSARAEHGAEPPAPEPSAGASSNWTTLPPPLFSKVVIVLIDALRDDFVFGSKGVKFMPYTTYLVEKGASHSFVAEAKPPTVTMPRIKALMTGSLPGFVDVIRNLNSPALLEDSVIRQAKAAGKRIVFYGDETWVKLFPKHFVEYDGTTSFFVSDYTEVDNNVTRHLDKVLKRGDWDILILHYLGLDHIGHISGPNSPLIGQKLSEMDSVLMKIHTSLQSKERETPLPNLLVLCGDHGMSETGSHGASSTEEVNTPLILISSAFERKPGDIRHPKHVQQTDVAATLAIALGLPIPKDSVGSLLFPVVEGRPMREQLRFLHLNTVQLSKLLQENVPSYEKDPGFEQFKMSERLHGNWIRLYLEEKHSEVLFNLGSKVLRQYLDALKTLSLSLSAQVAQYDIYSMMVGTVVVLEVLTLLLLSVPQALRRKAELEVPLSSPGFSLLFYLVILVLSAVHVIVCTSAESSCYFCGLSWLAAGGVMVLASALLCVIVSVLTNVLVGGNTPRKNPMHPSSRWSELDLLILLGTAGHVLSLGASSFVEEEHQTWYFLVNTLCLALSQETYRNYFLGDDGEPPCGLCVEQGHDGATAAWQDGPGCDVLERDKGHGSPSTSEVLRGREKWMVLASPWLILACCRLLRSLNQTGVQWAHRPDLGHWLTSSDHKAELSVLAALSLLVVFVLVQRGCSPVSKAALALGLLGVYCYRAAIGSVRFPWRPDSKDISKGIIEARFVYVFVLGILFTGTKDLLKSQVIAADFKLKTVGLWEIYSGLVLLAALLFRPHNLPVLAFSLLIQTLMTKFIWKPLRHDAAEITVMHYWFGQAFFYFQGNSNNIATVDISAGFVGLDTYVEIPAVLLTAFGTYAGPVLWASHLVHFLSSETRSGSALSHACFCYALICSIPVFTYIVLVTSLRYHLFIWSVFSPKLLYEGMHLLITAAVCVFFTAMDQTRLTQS
UniProt Q13492: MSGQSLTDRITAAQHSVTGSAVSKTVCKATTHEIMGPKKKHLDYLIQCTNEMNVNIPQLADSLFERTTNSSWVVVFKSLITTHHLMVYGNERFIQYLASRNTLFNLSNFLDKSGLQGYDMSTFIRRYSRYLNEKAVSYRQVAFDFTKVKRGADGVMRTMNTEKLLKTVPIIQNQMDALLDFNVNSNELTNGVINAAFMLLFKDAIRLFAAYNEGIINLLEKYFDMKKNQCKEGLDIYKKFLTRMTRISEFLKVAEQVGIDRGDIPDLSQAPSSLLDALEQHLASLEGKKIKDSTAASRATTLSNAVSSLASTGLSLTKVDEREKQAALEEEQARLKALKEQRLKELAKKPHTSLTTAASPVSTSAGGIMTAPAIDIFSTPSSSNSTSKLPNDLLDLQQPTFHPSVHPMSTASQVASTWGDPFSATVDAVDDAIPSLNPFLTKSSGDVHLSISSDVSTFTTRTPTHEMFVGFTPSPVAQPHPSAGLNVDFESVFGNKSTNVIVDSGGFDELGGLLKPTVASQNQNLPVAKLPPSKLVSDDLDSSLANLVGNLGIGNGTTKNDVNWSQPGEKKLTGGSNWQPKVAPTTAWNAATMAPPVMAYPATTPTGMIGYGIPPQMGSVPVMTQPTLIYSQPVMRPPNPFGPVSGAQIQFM
UniProt Q32NB8: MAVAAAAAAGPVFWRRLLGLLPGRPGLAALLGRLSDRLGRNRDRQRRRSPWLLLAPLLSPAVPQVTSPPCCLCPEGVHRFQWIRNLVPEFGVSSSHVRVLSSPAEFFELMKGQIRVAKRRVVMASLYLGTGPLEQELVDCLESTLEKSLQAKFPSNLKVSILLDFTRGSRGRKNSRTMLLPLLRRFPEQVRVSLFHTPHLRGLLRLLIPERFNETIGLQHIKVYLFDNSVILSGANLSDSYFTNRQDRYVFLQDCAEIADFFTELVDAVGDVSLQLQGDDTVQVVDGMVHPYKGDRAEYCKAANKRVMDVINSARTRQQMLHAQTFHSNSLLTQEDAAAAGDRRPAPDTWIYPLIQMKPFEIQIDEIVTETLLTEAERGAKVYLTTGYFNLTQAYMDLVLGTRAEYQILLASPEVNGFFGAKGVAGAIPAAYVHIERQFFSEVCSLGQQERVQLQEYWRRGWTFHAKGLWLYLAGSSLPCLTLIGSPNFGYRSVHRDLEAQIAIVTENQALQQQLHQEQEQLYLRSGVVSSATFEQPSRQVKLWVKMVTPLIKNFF

Tests used:
Test in all cases: log2 fold change, soluble protein after heating vs DMSO (PISA); higher = thermal stabilisation; K562 cells, 10 uM, 30 min; active = over 0.2 and 3.5 SD of the protein, either way, in both replicates (recomputed)
[1] = compound: COC1=CC=C(C=C1)CN2C=CC3=C2C=C(C=C3)C(=O)NO
Method in brief: (§1)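 K562 cells (2×10^6 cells/mL) were treated with 10 μM compound for 30 min, and aliquots were heated for 3 min over 48°C-58°C. Pooled aliquots were extracted in PBS with 0.5% NP-40 at 4°C, and the supernatant after 21,000xg for 90 min was measured by TMTpro 16plex LC-MS/MS with channel sums equalised. Reported thermal stability, relative to control samples and from duplicates, is a log2 fold change.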

filanesib = compound: CON(C)C(=O)N1N=C(c2cc(F)ccc2F)S[C@@]1(CCCN)c1ccccc1 [filanesib]
Method in brief: as §1

zotarolimus = compound: CO[C@H]1C[C@@H]2CC[C@@H](C)[C@@](O)(O2)C(=O)C(=O)N2CCCC[C@H]2C(=O)O[C@H]([C@H](C)C[C@@H]2CC[C@H](n3cnnn3)[C@H](OC)C2)CC(=O)[C@H](C)/C=C(\C)[C@@H](O)[C@@H](OC)C(=O)[C@H](C)C[C@H](C)/C=C/C=C/C=C/1C [zotarolimus]
Method in brief: as §1

idasanutlin = compound: COc1cc(C(=O)O)ccc1NC(=O)[C@@H]1N[C@@H](CC(C)(C)C)[C@](C#N)(c2ccc(Cl)cc2F)[C@H]1c1cccc(Cl)c1F [idasanutlin]
Method in brief: as §1

alisertib = compound: COc1cc(Nc2ncc3c(n2)-c2ccc(Cl)cc2C(c2c(F)cccc2OC)=NC3)ccc1C(=O)O [alisertib]
Method in brief: as §1

[2] = compound: COc1cc2nc(-c3cc(F)ccc3O)nc(N[C@@H]3CNC[C@H]3C(C)(C)O)c2cc1OC
Method in brief: as §1

gefitinib = compound: COc1cc2ncnc(Nc3ccc(F)c(Cl)c3)c2cc1OCCCN1CCOCC1 [gefitinib]
Method in brief: as §1

[3] = compound: COc1cccc2cc(-c3nc([C@H]4CC[C@H](C(=O)O)CC4)n4ncnc(N)c34)[nH]c12
Method in brief: as §1

lapatinib = compound: CS(=O)(=O)CCNCc1ccc(-c2ccc3ncnc(Nc4ccc(OCc5cccc(F)c5)c(Cl)c4)c3c2)o1 [lapatinib]
Method in brief: as §1

pictilisib = compound: CS(=O)(=O)N1CCN(Cc2cc3nc(-c4cccc5[nH]ncc45)nc(N4CCOCC4)c3s2)CC1 [pictilisib]
Method in brief: as §1

Measured: log2 fold change

PITRM1 isoform 2 (UniProt Q5JRX3)
inactive: [1] -0.097 | zotarolimus 0.124 | idasanutlin -0.047 | alisertib -0.009 | [2] -0.026 | gefitinib 0.137 | [3] 0.035 | lapatinib -0.04 | pictilisib -0.032
active: filanesib -0.229

PITPNB isoform 3 (UniProt P48739)
inactive: [1] -0.008 | filanesib -0.026 | zotarolimus 0.112 | idasanutlin -0.1 | alisertib -0.008 | [2] 0.005 | gefitinib 0.035 | [3] -0.002 | lapatinib 0.005 | pictilisib 0.133

PLCG1 isoform 2 (UniProt P19174)
inactive: [1] 0.104 | filanesib -0.139 | zotarolimus 0.038 | idasanutlin 0.017 | alisertib 0.05 | [2] 0.012 | gefitinib -0.047 | [3] 0.029 | lapatinib -0.003 | pictilisib 0.046

PI4KB (UniProt Q9UBF8)
inactive: [1] -0.027 | filanesib -0.048 | zotarolimus -0.047 | idasanutlin -0.034 | alisertib -0.053 | [2] 0.015 | gefitinib -0.024 | [3] 0.045 | lapatinib 0.046 | pictilisib 0.024

PIP4K2B (UniProt P78356)
active: [2] 0.379
inactive: [1] 0.028 | filanesib -0.146 | zotarolimus 0.025 | idasanutlin -0.104 | alisertib -0.045 | gefitinib 0.035 | [3] 0.207 | lapatinib -0.026 | pictilisib 0.022

PFKFB2 (UniProt O60825)
inactive: [1] -0.001 | filanesib -0.029 | zotarolimus 0.01 | idasanutlin -0.055 | alisertib -0.078 | [2] 0.024 | gefitinib 0.003 | [3] 0.019 | lapatinib -0.008 | pictilisib -0.057

PEX6 (UniProt Q13608)
inactive: [1] -0.064 | filanesib -0.123 | zotarolimus -0.014 | idasanutlin -0.048 | alisertib -0.029 | [2] -0.044 | gefitinib 0.048 | [3] 0.038 | lapatinib -0.015 | pictilisib -0.017

PICALM (UniProt H0YEY8)
inactive: [1] -0.123 | filanesib 0.007 | zotarolimus 0.099 | idasanutlin 0 | alisertib 0.001 | [2] -0.155 | gefitinib -0.019 | [3] 0.12 | lapatinib 0.029 | pictilisib 0.137

PISD (UniProt Q9UG56)
inactive: [1] -0.018 | filanesib -0.012 | zotarolimus 0.015 | idasanutlin -0.074 | alisertib -0.024 | [2] 0.148 | gefitinib 0.008 | [3] 0.012 | lapatinib -0.009 | pictilisib 0.036

PHKB isoform 3 (UniProt Q93100)
inactive: [1] -0.03 | filanesib 0.071 | zotarolimus 0.004 | idasanutlin -0.053 | alisertib 0.003 | [2] 0.16 | gefitinib -0.035 | [3] 0.082 | lapatinib 0.022 | pictilisib -0.124

PFKM isoform 3 (UniProt P08237)
inactive: [1] -0.046 | filanesib -0.025 | zotarolimus -0.027 | idasanutlin -0.037 | alisertib -0.034 | [2] 0 | gefitinib -0.011 | [3] 0.092 | lapatinib -0.013 | pictilisib -0.034

PHF5A (UniProt Q7RTV0)
inactive: [1] 0.014 | filanesib 0.087 | zotarolimus -0.024 | idasanutlin 0.056 | alisertib -0.033 | [2] 0.067 | gefitinib 0.003 | [3] 0.026 | lapatinib -0.051 | pictilisib 0.071

PHKA1 (UniProt P46020)
active: idasanutlin -0.518
inactive: [1] 0.046 | filanesib 0.076 | zotarolimus -0.024 | alisertib -0.223 | [2] 0.265 | gefitinib -0.017 | [3] 0.034 | lapatinib -0.109 | pictilisib 0.049

PEX16 isoform 2 (UniProt Q9Y5Y5)
inactive: [1] 0.146 | filanesib -0.152 | zotarolimus 0.016 | idasanutlin -0.076 | alisertib -0.011 | [2] -0.227 | gefitinib -0.021 | [3] 0.193 | lapatinib 0.05 | pictilisib -0.089

PLD3 (UniProt Q8IV08)
inactive: [1] -0.027 | filanesib -0.131 | zotarolimus -0.006 | idasanutlin 0.001 | alisertib -0.139 | [2] 0.019 | gefitinib 0.008 | [3] 0.027 | lapatinib -0.025 | pictilisib 0.045

PLBD2 (UniProt Q8NHP8)
inactive: [1] -0.069 | filanesib -0.015 | zotarolimus -0.029 | idasanutlin -0.012 | alisertib -0.048 | [2] -0.007 | gefitinib 0.018 | [3] 0.041 | lapatinib -0.008 | pictilisib 0.027

PIGA (UniProt P37287)
inactive: [1] -0.144 | filanesib -0.007 | zotarolimus 0.035 | idasanutlin 0.07 | alisertib -0.017 | [2] 0.066 | gefitinib 0.013 | [3] -0.017 | lapatinib 0.003 | pictilisib -0.425

PGGHG (UniProt Q32M88)
inactive: [1] -0.022 | filanesib 0.073 | zotarolimus 0.024 | idasanutlin 0.162 | alisertib -0.123 | [2] 0.082 | gefitinib -0.062 | [3] 0.041 | lapatinib -0.08 | pictilisib 0.042

PLCB3 (UniProt Q01970)
inactive: [1] -0.004 | filanesib -0.118 | zotarolimus 0.007 | idasanutlin -0.044 | alisertib -0.05 | [2] -0.008 | gefitinib -0.003 | [3] 0.013 | lapatinib -0.028 | pictilisib 0.055

PKM (UniProt P14618)
inactive: [1] 0 | filanesib -0.048 | zotarolimus -0.004 | idasanutlin -0.04 | alisertib -0.073 | [2] 0.012 | gefitinib -0.002 | [3] 0.054 | lapatinib -0.033 | pictilisib 0.026

Fetched one by one from the list above, two records:
PHF5A (UniProt Q7RTV0)
inactive: [1] 0.014 | filanesib 0.087 | zotarolimus -0.024 | idasanutlin 0.056 | alisertib -0.033 | [2] 0.067 | gefitinib 0.003 | [3] 0.026 | lapatinib -0.051 | pictilisib 0.071

PHKA1 (UniProt P46020)
active: idasanutlin -0.518
inactive: [1] 0.046 | filanesib 0.076 | zotarolimus -0.024 | alisertib -0.223 | [2] 0.265 | gefitinib -0.017 | [3] 0.034 | lapatinib -0.109 | pictilisib 0.049

(cont.)

PIGG (UniProt Q5H8A4)
inactive: [1] -0.01 | filanesib -0.062 | zotarolimus 0.073 | idasanutlin 0.019 | alisertib -0.048 | [2] 0.098 | gefitinib -0.122 | [3] 0.049 | lapatinib 0.046 | pictilisib 0.017

PICALM (UniProt Q13492)
inactive: [1] -0.03 | filanesib -0.042 | zotarolimus 0.012 | idasanutlin -0.057 | alisertib -0.032 | [2] -0.002 | gefitinib -0.002 | [3] 0.049 | lapatinib -0.012 | pictilisib 0.027

PHB2 (UniProt Q99623)
inactive: [1] -0.003 | filanesib -0.04 | zotarolimus -0.03 | idasanutlin -0.02 | alisertib -0.047 | [2] -0.007 | gefitinib 0.002 | [3] 0.041 | lapatinib 0.02 | pictilisib -0.002

PGS1 (UniProt Q32NB8)
inactive: [1] -0.075 | filanesib -0.031 | zotarolimus -0.095 | idasanutlin -0.014 | alisertib -0.247 | [2] 0.001 | gefitinib 0.1 | [3] 0.089 | lapatinib -0.041 | pictilisib 0.005

PLA2G15 (UniProt Q8NCC3)
inactive: [1] -0.041 | filanesib -0.076 | zotarolimus -0.007 | idasanutlin 0.01 | alisertib 0.095 | [2] 0.03 | gefitinib 0.001 | [3] 0.056 | lapatinib -0.001 | pictilisib -0.01

PHKG2 (UniProt P15735)
inactive: [1] 0.014 | filanesib -0.01 | zotarolimus -0.051 | idasanutlin 0.007 | alisertib -0.026 | [2] 0.219 | gefitinib -0.063 | [3] 0.015 | lapatinib 0.105 | pictilisib -0.055

PIR (UniProt O00625)
inactive: filanesib 0.015 | zotarolimus 0.011 | idasanutlin 0.033 | alisertib -0.038 | [2] 0.085 | gefitinib 0.061 | [3] 0.011 | lapatinib 0.018 | pictilisib 0.077
active: [1] -0.338
